Experimental data taken from patent publication US20220204640A1 (Genentech, published 2022).
These are yes or no findings as the source states them, for the method shown. Some entries that bind do so weakly or less than the wild type.

Target: T1, TAT211 polypeptide (form in the assay not stated) (human) (UniProt O95436)
T1 sequence: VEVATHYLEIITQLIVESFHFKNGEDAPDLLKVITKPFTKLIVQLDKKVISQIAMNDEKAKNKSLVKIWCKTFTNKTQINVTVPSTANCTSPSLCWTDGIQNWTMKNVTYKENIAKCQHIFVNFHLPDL
Test: ELISA on TAT211 coated plates

- binding: binds
B1: murine monoclonal antibody 10H1 (antibody, V domains shown)
VH: EVMLVESGGGLVRPGGSLKVSCAASGFSFSDFAMSWVRRTPDKRLEWVATIGRVASHTYYPDSMKGRFTISRDNAKNTLYLQMNSLRSDDTAIYYCVRHRGFDVGHFDFWGQGTLLTVSA
VL: DILMTQTPLSLPVSLGDQASISCRSSETLVHSNGNTYLEWYLQKLGQPPKLLIYRVSNRFSGVPDRFSGSGSGTDFTLKISRLEAEDLGVYYCFQGSHNPLTFGAGTKVEIKR
notes: Murine hybridoma IgG; also called mu10H1; murine 10H1
